The nature of the data set: general procedure: solution-phase peptide synthesis; N,N'-dicyclohexylcarbodiimide / N-oxybenzotriazole; N-oxysuccinimide esters.

We go through two substances from US7189701B1 (Sankt-Petersburgskaya Obschestvennaya Organizatsiya …, priority 1999, dated 2007).

*: point of attachment. Cbz = O=C(OCc1ccccc1)*; OBn = c1ccc(CO*)cc1

Cbz-AE(OBn)D(OBn)P-OBn registered a step yield (coupling step) of 90%.

The substance H-Ala-Glu-Asp-Pro-OH gave a step yield (late stage modification step) of 86%. Also, the “final HPLC purity” value (purification step, 220 nm) stood at 98.56%.
